Data on 9 molecules can be found in article doi:10.1101/2025.07.04.663186.

Protein sequences, listed by entry. Tags and fused reporters are not part of them.
UniProt O15117: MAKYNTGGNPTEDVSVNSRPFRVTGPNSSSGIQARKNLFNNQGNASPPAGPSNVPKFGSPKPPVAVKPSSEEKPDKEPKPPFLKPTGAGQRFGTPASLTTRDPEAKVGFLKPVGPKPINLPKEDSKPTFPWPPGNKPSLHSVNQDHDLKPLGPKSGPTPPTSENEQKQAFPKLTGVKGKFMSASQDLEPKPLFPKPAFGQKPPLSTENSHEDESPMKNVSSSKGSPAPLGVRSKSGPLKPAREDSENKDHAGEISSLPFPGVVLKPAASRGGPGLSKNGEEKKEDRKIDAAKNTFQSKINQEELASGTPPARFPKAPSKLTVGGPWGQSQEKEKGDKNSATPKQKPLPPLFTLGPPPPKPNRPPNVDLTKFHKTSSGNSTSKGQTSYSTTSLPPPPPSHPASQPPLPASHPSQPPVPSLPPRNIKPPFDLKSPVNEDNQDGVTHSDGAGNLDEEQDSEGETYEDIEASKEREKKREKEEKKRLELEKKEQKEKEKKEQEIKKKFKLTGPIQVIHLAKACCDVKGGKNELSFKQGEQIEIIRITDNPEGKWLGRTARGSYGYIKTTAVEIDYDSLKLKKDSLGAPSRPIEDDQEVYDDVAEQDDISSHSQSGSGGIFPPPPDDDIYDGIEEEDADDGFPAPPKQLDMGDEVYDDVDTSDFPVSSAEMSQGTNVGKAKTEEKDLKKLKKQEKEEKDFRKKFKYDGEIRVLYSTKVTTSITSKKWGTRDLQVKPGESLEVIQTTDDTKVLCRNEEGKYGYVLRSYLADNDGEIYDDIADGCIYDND
UniProt P46939: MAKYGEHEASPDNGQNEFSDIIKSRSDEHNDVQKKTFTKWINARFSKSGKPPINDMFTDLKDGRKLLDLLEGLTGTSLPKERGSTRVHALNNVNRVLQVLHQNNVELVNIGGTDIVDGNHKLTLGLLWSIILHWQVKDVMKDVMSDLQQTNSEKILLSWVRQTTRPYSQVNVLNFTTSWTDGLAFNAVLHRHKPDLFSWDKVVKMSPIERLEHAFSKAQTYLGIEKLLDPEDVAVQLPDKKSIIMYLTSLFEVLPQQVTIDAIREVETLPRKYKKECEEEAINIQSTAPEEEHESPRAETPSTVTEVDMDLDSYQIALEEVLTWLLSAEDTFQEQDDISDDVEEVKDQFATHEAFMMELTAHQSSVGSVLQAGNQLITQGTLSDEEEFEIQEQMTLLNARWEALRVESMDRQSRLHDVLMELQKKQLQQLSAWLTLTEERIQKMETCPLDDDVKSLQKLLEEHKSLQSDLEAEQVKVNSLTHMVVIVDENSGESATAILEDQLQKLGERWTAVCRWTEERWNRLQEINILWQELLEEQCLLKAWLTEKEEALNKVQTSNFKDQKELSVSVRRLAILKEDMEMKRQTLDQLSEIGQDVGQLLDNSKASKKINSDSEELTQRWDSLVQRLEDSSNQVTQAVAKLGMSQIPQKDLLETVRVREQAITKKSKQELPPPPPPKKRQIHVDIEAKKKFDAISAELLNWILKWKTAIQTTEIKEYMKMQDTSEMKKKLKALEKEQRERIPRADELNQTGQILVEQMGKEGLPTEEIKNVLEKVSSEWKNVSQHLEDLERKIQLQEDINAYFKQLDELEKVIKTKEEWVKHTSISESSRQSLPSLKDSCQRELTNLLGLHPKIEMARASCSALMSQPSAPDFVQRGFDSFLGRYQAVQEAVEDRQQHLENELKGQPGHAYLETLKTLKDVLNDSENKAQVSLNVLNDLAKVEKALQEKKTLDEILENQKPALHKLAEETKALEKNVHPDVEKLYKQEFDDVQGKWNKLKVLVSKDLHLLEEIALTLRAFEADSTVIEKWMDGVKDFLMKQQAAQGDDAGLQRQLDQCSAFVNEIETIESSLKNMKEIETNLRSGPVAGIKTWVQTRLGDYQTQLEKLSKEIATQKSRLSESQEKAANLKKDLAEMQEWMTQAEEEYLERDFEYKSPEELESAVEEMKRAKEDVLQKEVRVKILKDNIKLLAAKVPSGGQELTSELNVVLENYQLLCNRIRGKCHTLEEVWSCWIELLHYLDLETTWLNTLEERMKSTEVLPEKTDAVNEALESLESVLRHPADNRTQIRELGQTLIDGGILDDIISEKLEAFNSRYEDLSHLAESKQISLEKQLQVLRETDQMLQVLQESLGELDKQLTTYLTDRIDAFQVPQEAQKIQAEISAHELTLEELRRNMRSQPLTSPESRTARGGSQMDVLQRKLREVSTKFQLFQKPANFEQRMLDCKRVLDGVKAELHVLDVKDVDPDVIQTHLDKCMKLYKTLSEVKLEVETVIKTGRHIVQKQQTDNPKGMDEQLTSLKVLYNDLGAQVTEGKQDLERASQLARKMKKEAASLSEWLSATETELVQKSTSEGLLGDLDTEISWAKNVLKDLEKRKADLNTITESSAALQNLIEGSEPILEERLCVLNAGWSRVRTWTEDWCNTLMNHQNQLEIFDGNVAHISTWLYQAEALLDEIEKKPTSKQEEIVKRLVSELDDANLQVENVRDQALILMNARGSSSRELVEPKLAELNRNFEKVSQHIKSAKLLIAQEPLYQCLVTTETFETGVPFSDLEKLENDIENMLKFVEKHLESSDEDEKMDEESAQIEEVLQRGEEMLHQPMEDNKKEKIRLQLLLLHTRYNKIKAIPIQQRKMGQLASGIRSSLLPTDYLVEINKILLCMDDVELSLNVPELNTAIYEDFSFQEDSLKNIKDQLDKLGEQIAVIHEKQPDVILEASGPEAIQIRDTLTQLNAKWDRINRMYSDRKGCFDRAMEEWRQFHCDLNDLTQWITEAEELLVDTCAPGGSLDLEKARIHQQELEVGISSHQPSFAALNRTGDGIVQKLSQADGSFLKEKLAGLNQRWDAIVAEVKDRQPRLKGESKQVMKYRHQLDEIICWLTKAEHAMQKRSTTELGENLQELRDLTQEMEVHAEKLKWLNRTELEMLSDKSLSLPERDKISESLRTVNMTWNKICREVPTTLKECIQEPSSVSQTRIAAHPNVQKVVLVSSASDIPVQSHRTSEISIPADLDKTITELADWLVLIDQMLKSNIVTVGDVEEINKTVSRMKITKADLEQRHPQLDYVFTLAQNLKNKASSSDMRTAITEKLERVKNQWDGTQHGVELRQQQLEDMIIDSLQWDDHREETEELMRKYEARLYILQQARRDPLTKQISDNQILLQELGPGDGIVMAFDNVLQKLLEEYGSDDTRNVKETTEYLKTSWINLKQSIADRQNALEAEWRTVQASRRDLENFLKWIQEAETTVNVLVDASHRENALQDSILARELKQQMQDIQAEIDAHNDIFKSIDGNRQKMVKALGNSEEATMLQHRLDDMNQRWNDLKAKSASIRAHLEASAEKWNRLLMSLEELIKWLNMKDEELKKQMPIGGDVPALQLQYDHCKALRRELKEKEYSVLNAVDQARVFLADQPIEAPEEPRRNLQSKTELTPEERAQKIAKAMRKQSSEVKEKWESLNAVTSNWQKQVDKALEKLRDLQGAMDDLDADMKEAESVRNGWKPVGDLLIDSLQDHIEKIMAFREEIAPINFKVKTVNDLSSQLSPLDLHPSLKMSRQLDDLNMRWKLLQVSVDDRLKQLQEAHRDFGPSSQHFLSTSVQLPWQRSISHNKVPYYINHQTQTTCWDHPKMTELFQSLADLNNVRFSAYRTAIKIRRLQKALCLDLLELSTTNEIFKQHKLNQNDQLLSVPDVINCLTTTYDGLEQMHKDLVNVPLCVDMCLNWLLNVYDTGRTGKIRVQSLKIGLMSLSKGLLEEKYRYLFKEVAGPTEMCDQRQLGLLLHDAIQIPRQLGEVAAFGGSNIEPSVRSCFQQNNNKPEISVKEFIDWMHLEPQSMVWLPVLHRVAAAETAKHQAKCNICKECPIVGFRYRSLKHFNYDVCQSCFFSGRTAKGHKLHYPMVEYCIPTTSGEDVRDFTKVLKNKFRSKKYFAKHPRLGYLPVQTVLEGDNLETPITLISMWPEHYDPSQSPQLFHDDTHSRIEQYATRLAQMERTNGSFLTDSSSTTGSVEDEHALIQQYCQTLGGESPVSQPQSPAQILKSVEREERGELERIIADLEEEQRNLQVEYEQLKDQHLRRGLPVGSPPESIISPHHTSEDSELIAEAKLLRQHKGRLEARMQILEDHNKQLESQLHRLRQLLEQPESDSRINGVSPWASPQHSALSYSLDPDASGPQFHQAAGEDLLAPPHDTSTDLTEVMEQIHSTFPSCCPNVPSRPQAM
UniProt P42768: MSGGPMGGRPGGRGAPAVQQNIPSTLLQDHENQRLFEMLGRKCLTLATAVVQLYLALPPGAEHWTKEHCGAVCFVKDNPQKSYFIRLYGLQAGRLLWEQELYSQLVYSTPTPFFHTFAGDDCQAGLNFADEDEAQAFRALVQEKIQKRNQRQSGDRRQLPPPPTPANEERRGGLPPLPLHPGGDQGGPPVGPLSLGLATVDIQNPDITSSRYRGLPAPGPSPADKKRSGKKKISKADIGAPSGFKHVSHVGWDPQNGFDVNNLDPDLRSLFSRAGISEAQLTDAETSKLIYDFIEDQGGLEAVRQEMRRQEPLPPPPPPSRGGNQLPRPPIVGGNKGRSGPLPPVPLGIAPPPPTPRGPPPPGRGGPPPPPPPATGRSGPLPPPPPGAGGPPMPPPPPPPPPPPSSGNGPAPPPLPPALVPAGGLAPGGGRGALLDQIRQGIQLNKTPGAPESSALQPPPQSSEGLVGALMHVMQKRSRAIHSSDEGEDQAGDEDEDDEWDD

Where two headings read alike, the source gives them in different places. Results are given in words; binding and its absence hold for the method and conditions named. In cells and extracts the contact can be indirect. Here binding means that the protein was enriched with, or labelled near, the bait; the list need not be complete. Sequences can lack the tags named with a protein.

The target in experiment [1] is T1, myc-BirA*-MYO1F tail (aa 692-1098) (human) (UniProt O00160).
T1 sequence: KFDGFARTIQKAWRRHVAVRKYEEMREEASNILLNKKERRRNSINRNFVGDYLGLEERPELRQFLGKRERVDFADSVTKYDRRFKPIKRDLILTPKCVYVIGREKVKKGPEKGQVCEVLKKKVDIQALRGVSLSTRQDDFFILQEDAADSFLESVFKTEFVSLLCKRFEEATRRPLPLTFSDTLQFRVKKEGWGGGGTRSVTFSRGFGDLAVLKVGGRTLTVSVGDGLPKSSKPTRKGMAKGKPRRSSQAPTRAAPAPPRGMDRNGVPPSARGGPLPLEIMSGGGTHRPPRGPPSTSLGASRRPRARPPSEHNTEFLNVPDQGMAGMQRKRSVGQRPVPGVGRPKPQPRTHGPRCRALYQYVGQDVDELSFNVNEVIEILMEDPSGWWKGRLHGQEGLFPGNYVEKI
Nature of the experiment: proximity labelling.

For experiment [2], the target named is T1, myc-BirA*-MYO1F tail (aa 692-1098) (human). The experiment is described as follows: proximity labelling. This is another data set of the same source.

Take “FYN-binding protein (FYB) (from UniProt O15117 1-783)”: in experiment [1], the binding result was “binds”.
As for “utrophin (UTRN) (from UniProt P46939 1-3433)”, the binding result in experiment [1] was “binds”.
With “Wiskott-Aldrich Syndrome protein (WASP) (from UniProt P42768 1-502)”, the binding result in experiment [1] was “binds”.

B1: NUMB (protein, UniProt P49757 1-651)
chain: MNKLRQSFRRKKDVYVPEASRPHQWQTDEEGVRTGKCSFPVKYLGHVEVDESRGMHICEDAVKRLKAERKFFKGFFGKTGKKAVKAVLWVSADGLRVVDEKTKDLIVDQTIEKVSFCAPDRNFDRAFSYICRDGTTRRWICHCFMAVKDTGERLSHAVGCAFAACLERKQKREKECGVTATFDASRTTFTREGSFRVTTATEQAEREEIMKQMQDAKKAETDKIVVGSSVAPGNTAPSPSSPTSPTSDATTSLEMNNPHAIPRRHAPIEQLARQGSFRGFPALSQKMSPFKRQLSLRINELPSTMQRKTDFPIKNAVPEVEGEAESISSLCSQITNAFSTPEDPFSSAPMTKPVTVVAPQSPTFQANGTDSAFHVLAKPAHTALAPVAMPVRETNPWAHAPDAANKEIAATCSGTEWGQSSGAASPGLFQAGHRRTPSEADRWLEEVSKSVRAQQPQASAAPLQPVLQPPPPTAISQPASPFQGNAFLTSQPVPVGVVPALQPAFVPAQSYPVANGMPYPAPNVPVVGITPSQMVANVFGTAGHPQAAHPHQSPSLVRQQTFPHYEASSATTSPFFKPPAQHLNGSAAFNGVDDGRLASADRHTEVPTGTCPVDPFEAQWAALENKSKQRTNPSPTNPFSSDLQKTFEIEL
For the molecule B1, the binding entry in experiment [2] was “binds”.

B2: Formin-binding protein 1 (FNBP1) (protein, UniProt Q96RU3 1-617)
chain: MSWGTELWDQFDNLEKHTQWGIDILEKYIKFVKERTEIELSYAKQLRNLSKKYQPKKNSKEEEEYKYTSCKAFISNLNEMNDYAGQHEVISENMASQIIVDLARYVQELKQERKSNFHDGRKAQQHIETCWKQLESSKRRFERDCKEADRAQQYFEKMDADINVTKADVEKARQQAQIRHQMAEDSKADYSSILQKFNHEQHEYYHTHIPNIFQKIQEMEERRIVRMGESMKTYAEVDRQVIPIIGKCLDGIVKAAESIDQKNDSQLVIEAYKSGFEPPGDIEFEDYTQPMKRTVSDNSLSNSRGEGKPDLKFGGKSKGKLWPFIKKNKLMSLLTSPHQPPPPPPASASPSAVPNGPQSPKQQKEPLSHRFNEFMTSKPKIHCFRSLKRGLSLKLGATPEDFSNLPPEQRRKKLQQKVDELNKEIQKEMDQRDAITKMKDVYLKNPQMGDPASLDHKLAEVSQNIEKLRVETQKFEAWLAEVEGRLPARSEQARRQSGLYDSQNPPTVNNCAQDRESPDGSYTEEQSQESEMKVLATDFDDEFDDEEPLPAIGTCKALYTFEGQNEGTISVVEGETLYVIEEDKGDGWTRIRRNEDEEGYVPTSYVEVCLDKNAKDS
As to B2, the binding result in experiment [2] is “binds”.

B3: ADD3 (Adducin gamma) (protein, UniProt Q9UEY8 1-706)
chain: MSSDASQGVITTPPPPSMPHKERYFDRINENDPEYIRERNMSPDLRQDFNMMEQRKRVTQILQSPAFREDLECLIQEQMKKGHNPTGLLALQQIADYIMANSFSGFSSPPLSLGMVTPINDLPGADTSSYVKGEKLTRCKLASLYRLVDLFGWAHLANTYISVRISKEQDHIIIIPRGLSFSEATASNLVKVNIIGEVVDQGSTNLKIDHTGFSPHAAIYSTRPDVKCVIHIHTLATAAVSSMKCGILPISQESLLLGDVAYYDYQGSLEEQEERIQLQKVLGPSCKVLVLRNHGVVALGETLEEAFHYIFNVQLACEIQVQALAGAGGVDNLHVLDFQKYKAFTYTVAASGGGGVNMGSHQKWKVGEIEFEGLMRTLDNLGYRTGYAYRHPLIREKPRHKSDVEIPATVTAFSFEDDTVPLSPLKYMAQRQQREKTRWLNSPNTYMKVNVPEESRNGETSPRTKITWMKAEDSSKVSGGTPIKIEDPNQFVPLNTNPNEVLEKRNKIREQNRYDLKTAGPQSQLLAGIVVDKPPSTMQFEDDDHGPPAPPNPFSHLTEGELEEYKRTIERKQQGLEDAEQELLSDDASSVSQIQSQTQSPQNVPEKLEENHELFSKSFISMEVPVMVVNGKDDMHDVEDELAKRVSRLSTSTTIENIEITIKSPEKIEEVLSPEGSPSKSPSKKKKKFRTPSFLKKNKKKEKVEA
As to B3, the binding entry in experiment [2] is on record as “binds”.

B4: GPR124 (protein, UniProt Q96PE1 34-1338)
chain: APGCPLSIRSCKCSGERPKGLSGGVPGPARRRVVCSGGDLPEPPEPGLLPNGTVTLLLSNNKITGLRNGSFLGLSLLEKLDLRNNIISTVQPGAFLGLGELKRLDLSNNRIGCLTSETFQGLPRLLRLNISGNIFSSLQPGVFDELPALKVVDLGTEFLTCDCHLRWLLPWAQNRSLQLSEHTLCAYPSALHAQALGSLQEAQLCCEGALELHTHHLIPSLRQVVFQGDRLPFQCSASYLGNDTRIRWYHNRAPVEGDEQAGILLAESLIHDCTFITSELTLSHIGVWASGEWECTVSMAQGNASKKVEIVVLETSASYCPAERVANNRGDFRWPRTLAGITAYQSCLQYPFTSVPLGGGAPGTRASRRCDRAGRWEPGDYSHCLYTNDITRVLYTFVLMPINASNALTLAHQLRVYTAEAASFSDMMDVVYVAQMIQKFLGYVDQIKELVEVMVDMASNLMLVDEHLLWLAQREDKACSRIVGALERIGGAALSPHAQHISVNARNVALEAYLIKPHSYVGLTCTAFQRREGGVPGTRPGSPGQNPPPEPEPPADQQLRFRCTTGRPNVSLSSFHIKNSVALASIQLPPSLFSSLPAALAPPVPPDCTLQLLVFRNGRLFHSHSNTSRPGAAGPGKRRGVATPVIFAGTSGCGVGNLTEPVAVSLRHWAEGAEPVAAWWSQEGPGEAGGWTSEGCQLRSSQPNVSALHCQHLGNVAVLMELSAFPREVGGAGAGLHPVVYPCTALLLLCLFATIITYILNHSSIRVSRKGWHMLLNLCFHIAMTSAVFAGGITLTNYQMVCQAVGITLHYSSLSTLLWMGVKARVLHKELTWRAPPPQEGDPALPTPSPMLRFYLIAGGIPLIICGITAAVNIHNYRDHSPYCWLVWRPSLGAFYIPVALILLITWIYFLCAGLRLRGPLAQNPKAGNSRASLEAGEELRGSTRLRGSGPLLSDSGSLLATGSARVGTPGPPEDGDSLYSPGVQLGALVTTHFLYLAMWACGALAVSQRWLPRVVCSCLYGVAASALGLFVFTHHCARRRDVRASWRACCPPASPAAPHAPPRALPAAAEDGSPVFGEGPPSLKSSPSGSSGHPLALGPCKLTNLQLAQSQVCEAGAAAGGEGEPEPAGTRGNLAHRHPNNVHHGRRAHKSRAKGHRAGEACGKNRLKALRGGAAGALELLSSESGSLHNSPTDSYLGSSRNSPGAGLQLEGEPMLTPSEGSDTSAAPLSEAGRAGQRRSASRDSLKGGGALEKESHRRSYPLNAASLNGAPKGGKYDDVTLMGAEVASGGCMKTGLWKSETTV
For B4, the binding entry in experiment [2] is given as “binds”.

B5: GOLGA8R (protein, UniProt I6L899 1-631)
chain: MAEETQHNKLAAAKKKLKEYWQKNRPRVPAGVNRNRKTNGSIPETATSGGCQPPGDSATGFHREGPTSSATLKDLESPCQERAVVLDSTSVKISRLKNTIKSLKQQKKQVEHQLEEEKKANNERQKAERVLEVQIQTLIIQKEELNTDLYHMERSLRYFEEESKDLAVRLQHSLQCKGELERALSAVIATEKKKANQLSSCSKAHTEWELEQSLQDQALLKAQLTQLKESFQQLQLERDECAEHIEGERARWHQRMSKMSQEICTLKKEKQDMRWVEQLEWSLSKLKNQTAEPLPPEPPAVPSEVELQHLRKELERVAGELQSQVKNNQHISLLNRRQEERIREQEERLRKQEERLQEQHEKLRQLAKPQSVFEELNNENKSTLQLEQQVKELQEKLGEEHLEVASQQNQQLTAQLSLMALPGEGHGGEHLDSEGEEAPQPMPSVPEDPESREAMSSFMDHLKEKADLSELLKKQELRFIQYWQERCHQKIHHLLSEPGGRAKDAALGGGHHQAGAQGGDEGEAAGAAADGIAAYSNYNNGHRKFLAAAHNSADEPGPGAPAPQELGAADKHGDLREVTLTSSAQGEAREDPLLDKPTAQPIVQDHQEHPGLGSNCCVPLFCWAWLPRRRR
As to B5, the binding entry in experiment [2] is “binds”.

B6: ITGA6 (Integrin alpha-6) (protein, UniProt P23229 24-1130)
chain: FNLDTREDNVIRKYGDPGSLFGFSLAMHWQLQPEDKRLLLVGAPRAEALPLQRANRTGGLYSCDITARGPCTRIEFDNDADPTSESKEDQWMGVTVQSQGPGGKVVTCAHRYEKRQHVNTKQESRDIFGRCYVLSQNLRIEDDMDGGDWSFCDGRLRGHEKFGSCQQGVAATFTKDFHYIVFGAPGTYNWKGIVRVEQKNNTFFDMNIFEDGPYEVGGETEHDESLVPVPANSYLGLLFLTSVSYTDPDQFVYKTRPPREQPDTFPDVMMNSYLGFSLDSGKGIVSKDEITFVSGAPRANHSGAVVLLKRDMKSAHLLPEHIFDGEGLASSFGYDVAVVDLNKDGWQDIVIGAPQYFDRDGEVGGAVYVYMNQQGRWNNVKPIRLNGTKDSMFGIAVKNIGDINQDGYPDIAVGAPYDDLGKVFIYHGSANGINTKPTQVLKGISPYFGYSIAGNMDLDRNSYPDVAVGSLSDSVTIFRSRPVINIQKTITVTPNRIDLRQKTACGAPSGICLQVKSCFEYTANPAGYNPSISIVGTLEAEKERRKSGLSSRVQFRNQGSEPKYTQELTLKRQKQKVCMEETLWLQDNIRDKLRPIPITASVEIQEPSSRRRVNSLPEVLPILNSDEPKTAHIDVHFLKEGCGDDNVCNSNLKLEYKFCTREGNQDKFSYLPIQKGVPELVLKDQKDIALEITVTNSPSNPRNPTKDGDDAHEAKLIATFPDTLTYSAYRELRAFPEKQLSCVANQNGSQADCELGNPFKRNSNVTFYLVLSTTEVTFDTPDLDINLKLETTSNQDNLAPITAKAKVVIELLLSVSGVAKPSQVYFGGTVVGEQAMKSEDEVGSLIEYEFRVINLGKPLTNLGTATLNIQWPKEISNGKWLLYLVKVESKGLEKVTCEPQKEINSLNLTESHNSRKKREITEKQIDDNRKFSLFAERKYQTLNCSVNVNCVNIRCPLRGLDSKASLILRSRLWNSTFLEEYSKLNYLDILMRAFIDVTAAAENIRLPNAGTQVRVTVFPSKTVAQYSGVPWWIILVAILAGILMLALLVFILWKCGFFKRSRYDDSVPRYHAVRIRKEEREIKDEKYIDNLEKKQWITKWNENESYS
With B6, in experiment [2], the binding entry was “binds”.
